In article PMC12101500, “Mechanism of D-type cyclin recognition by the AMBRA1 E3 ligase receptor” (Science Advances, 2025) one finds binding data, which are given here for four molecules.

By UniProt entry, the sequences of proteins in these tests, tags left out. Where a name states a change or a piece, a line headed by the entry shows the natural chain unless it says otherwise. Chains listed by the source or under a name are the forms on record and can include a tag or linker.
CDK4EE (P11802, form named): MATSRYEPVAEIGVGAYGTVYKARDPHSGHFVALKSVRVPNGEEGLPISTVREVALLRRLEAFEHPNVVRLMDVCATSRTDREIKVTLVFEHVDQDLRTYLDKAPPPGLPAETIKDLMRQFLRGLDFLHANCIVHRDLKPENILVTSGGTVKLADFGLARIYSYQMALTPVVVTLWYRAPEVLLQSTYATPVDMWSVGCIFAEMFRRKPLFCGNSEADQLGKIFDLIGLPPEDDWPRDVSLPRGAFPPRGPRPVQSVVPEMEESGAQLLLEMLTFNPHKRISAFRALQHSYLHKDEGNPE
MBP-AMBRA1^WD40 (Q9C0C7, form named): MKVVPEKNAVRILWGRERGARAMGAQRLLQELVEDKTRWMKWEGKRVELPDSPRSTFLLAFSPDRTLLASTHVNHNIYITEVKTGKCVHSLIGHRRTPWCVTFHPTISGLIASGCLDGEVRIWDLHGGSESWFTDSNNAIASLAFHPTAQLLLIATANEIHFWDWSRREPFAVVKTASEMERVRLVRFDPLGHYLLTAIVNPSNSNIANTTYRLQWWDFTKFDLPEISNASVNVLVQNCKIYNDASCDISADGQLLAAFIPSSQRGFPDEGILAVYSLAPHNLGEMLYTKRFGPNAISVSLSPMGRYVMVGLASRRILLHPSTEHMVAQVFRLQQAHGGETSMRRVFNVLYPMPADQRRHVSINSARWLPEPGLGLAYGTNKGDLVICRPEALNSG
UniProt P24385: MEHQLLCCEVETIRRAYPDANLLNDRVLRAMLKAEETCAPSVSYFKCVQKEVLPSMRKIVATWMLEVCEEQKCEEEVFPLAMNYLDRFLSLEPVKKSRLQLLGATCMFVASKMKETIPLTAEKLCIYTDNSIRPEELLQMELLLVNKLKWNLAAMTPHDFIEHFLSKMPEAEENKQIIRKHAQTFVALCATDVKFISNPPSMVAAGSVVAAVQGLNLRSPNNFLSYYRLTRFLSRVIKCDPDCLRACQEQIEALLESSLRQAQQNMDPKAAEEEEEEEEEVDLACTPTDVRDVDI
UniProt P30279: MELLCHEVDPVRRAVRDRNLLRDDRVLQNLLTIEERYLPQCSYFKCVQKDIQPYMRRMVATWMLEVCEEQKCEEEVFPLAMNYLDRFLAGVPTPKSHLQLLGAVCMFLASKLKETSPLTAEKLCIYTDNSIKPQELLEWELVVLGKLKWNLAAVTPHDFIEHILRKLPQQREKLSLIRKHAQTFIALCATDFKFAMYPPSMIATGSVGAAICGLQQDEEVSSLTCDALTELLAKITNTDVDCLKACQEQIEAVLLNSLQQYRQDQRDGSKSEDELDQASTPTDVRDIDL

One assay has as its target CDK4EE (human) (UniProt P11802). The experiment in a line: tandem affinity co-purification; TSF–cyclin D1/D2/D3 (WT and mutants) co-expressed with GST-CDK4EE in Expi293F; GST beads from the lysate, TEV digestion, Strep-tactin resin; SDS-PAGE.
In the next assay the target is MBP-AMBRA1^WD40 (human) (UniProt Q9C0C7). The experiment in a line: pull-down; MBP resin, bait MBP-AMBRA1^WD40; lysate of Expi293F cells cotransfected with TSF–D-type cyclin, GST-CDK4EE, His6-DDB1 and MBP-AMBRA1^WD40; eluted with 10 mM maltose; SDS-PAGE and Western blot.

Results are given in words; binding and its absence hold for the method and conditions named. For some assays here: Binding seen in cells or lysates may run through a third protein. Some entries that bind do so weakly or less than the wild type.

Regarding “TSF–cyclin D1 T286A (from UniProt P24385 1-295)”, in the assay with CDK4EE (human), the binding entry was “binds”. In the case of “TSF–cyclin D3 (full-length) (from UniProt P30281 1-292)”, the binding entry in the assay with CDK4EE (human) and with MBP-AMBRA1^WD40 (human) was “binds” each time. In the case of “TSF–cyclin D2 (full-length) (from UniProt P30279 1-289)”, in the assay with MBP-AMBRA1^WD40 (human), the binding entry is recorded as “binds”.

B1: TSF–cyclin D3 T283A (protein, UniProt P30281 1-292)
chain: MELLCCEGTRHAPRAGPDPRLLGDQRVLQSLLRLEERYVPRASYFQCVQREIKPHMRKMLAYWMLEVCEEQRCEEEVFPLAMNYLDRYLSCVPTRKAQLQLLGAVCMLLASKLRETTPLTIEKLCIYTDHAVSPRQLRDWEVLVLGKLKWDLAAVIAHDFLAFILHRLSLPRDRQALVKKHAQTFLALCATDYTFAMYPPSMIATGSIGAAVQGLGACSMSGDELTELLAGITGTEVDCLRACQEQIEAALRESLREASQTSSSPAPKAPRGSSSQGPSQTSAPTDVTAIHL
As for B1, the binding result with CDK4EE (human) is “binds”.
